Experimental data from PubChem BioAssay AID1347423 (Functional Genomics Laboratory (NCATS/FGL), 2020).
Hit rate of the full screen: of about 52,000 sequences, about 210 (0.4%) were called active.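 Rule for the calls: active = gene whose silencing raises cell survival under the drug, median off-target-corrected z-score across its silencing RNAs 2 or more; inactive = the rest.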 The list shows a part of the results.

assay: Resistance to Poly (ADP-Ribose) Polymerase inhibitor: Gene Identification via Genome-wide siRNA Screen; settings: mouse BRCA2 R2336H ES cells, olaparib, CellTiter-Glo viability; stronger effect = higher value
Method in brief: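 Genome-wide siRNA screen (3 siRNAs/gene, 20 nM) in mouse ES cells carrying hypomorphic BRCA2 R2336H; olaparib 500 nM added 48 h post-transfection, CellTiter-Glo viability 72 h later. Normalized to plate-median negative control; MAD z-scores, gene median, seed-adjusted.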

Sequence	z-score
GGAACUUUUUCAGAGCUCUTT against Senp3	inactive: -1.61
CCGGAGUUAUACCGUAAGATT against Plaur	inactive: 1.01
GCUAGAGAUCCGGAUUAAGTT against A930018P22Rik	inactive: 0.783
CCGGAUAUUUAUCAGUGAUTT against Tiam2	inactive: -1.03
GGGAUCAAAACAUACUGUGTT against Klra4	inactive: -0.682
GGAGCAGGCAUCGUGUUUATT against Cdh20	inactive: 0.402
GUUGAGUGGCUGUGAUAUATT against NMS	inactive: -0.139
CCAAUGCCGCCAGAAGUUATT against Siah2	inactive: 0.456
GGCCGCUACCUUUAUGAACTT against Prpf3	inactive: -1.12
GGUGGUUUAAAGACUUGAUTT against D1Pas1	inactive: 1.29
GGCCAAGAAGACUUAUGUATT against Tufm	inactive: 1.51
CGCAAAAUGCUUACCUGCUTT against 1700018O18Rik	inactive: 0.808
CCACUUCCUUACGAUUGAUTT against 9430007A20Rik	inactive: 0.677
GGACCCAAUAAAACUUCCGTT against BC021608	inactive: -0.54
GGCCAUAAUCAAUCCUACCTT against H2afy	inactive: -0.103
GGUGCAGAAAGAGAGAAGATT against Papd1	inactive: -0.116
GGACUGGUUCUUCAGUACCTT against Cradd	inactive: 2.24
GCAAAUCUUGUAAUAACACTT against Uty	inactive: 0.305
GGCACUCCCUAAUGAACUCTT against Adck5	inactive: 0.0432
GGAACUAUCUUGGUGAAGCTT against Robo2	inactive: 0.0326
GGGCUCUACAGUUUUUAAUTT against Atp5g3	inactive: 0.0286
GCUCCCAUACAGCACCUUCTT against Tbx2	inactive: 0.885
GGCAAAAAGGCAGUAGCCATT against Ncl	inactive: -1.12

Sequence	z-score
GGUAUCAGACAAACACCAGTT against Syt5	inactive: -0.651
GGAUUUUCCAGGCAUGAGGTT against Ehd3	inactive: -1.18
CGUGACUUCUAUCAUACUUTT against Fntb	inactive: -0.681
GCCCAGAUUAUCAGAUCUGTT against Tnfaip2	inactive: -0.525
GGACUUAGAGAGUUUCUUGTT against Numa1	inactive: 1.44
GCAAUUCAGACAUACAGGGTT against 5033403J15Rik	inactive: -0.0391
CCCACUCCUUCUAAAAGUUTT against Cyp3a13	inactive: -0.255
CCACUUCCAUAGAGAUUUUTT against A730024F05Rik	inactive: -0.0108
GCAGUUGUUUUGACUUACUTT against E330018D03Rik	inactive: -0.202
CGCACUUACCGUGUCCUAUTT against Homer3	inactive: -0.593
AUCUGAGGAAAUCGCCCUATT against Olfr1278	inactive: -1.06
CCUGCUUACGUGAAAUACUTT against Garnl4	inactive: -1.22
UAGCCACUCAUCAUUCUAATT against LOC381806	inactive: 1.64
GCAAUAAUCGUUCUCAAAATT against Prkab1	inactive: 0.951
GGCAGGAAAUUCAUUUUAATT against Zfy2	inactive: 1.3
CCUGCUUGUCUCAAUAGUUTT against Krtap3-2	inactive: 0.308
GGUUCCUGACCACUGGUACTT against Gstt1	inactive: 0.289
GGCUUGUCAGUGCAUCUCATT against Kif9	inactive: -0.331
GGUGCAUAAAUAAAUUCCUTT against B230317F23Rik	inactive: 0.571
GGCACCAGUAUCAGCCUUUTT against Mrpl15	inactive: -1.23
GGCCAUCUCAUUUUCAGGGTT against Olfr749	inactive: 0.654
GGGAGACAUUUUCAAGAUGTT against B430119L13Rik	inactive: 0.208
GGGCAACAUGUCACUGAUCTT against Pgbd5	inactive: 1.53

20 successive records from above, for reference:
Sequence	z-score
GGAUUUUCCAGGCAUGAGGTT against Ehd3	inactive: -1.18
CGUGACUUCUAUCAUACUUTT against Fntb	inactive: -0.681
GCCCAGAUUAUCAGAUCUGTT against Tnfaip2	inactive: -0.525
GGACUUAGAGAGUUUCUUGTT against Numa1	inactive: 1.44
GCAAUUCAGACAUACAGGGTT against 5033403J15Rik	inactive: -0.0391
CCCACUCCUUCUAAAAGUUTT against Cyp3a13	inactive: -0.255
CCACUUCCAUAGAGAUUUUTT against A730024F05Rik	inactive: -0.0108
GCAGUUGUUUUGACUUACUTT against E330018D03Rik	inactive: -0.202
CGCACUUACCGUGUCCUAUTT against Homer3	inactive: -0.593
AUCUGAGGAAAUCGCCCUATT against Olfr1278	inactive: -1.06
CCUGCUUACGUGAAAUACUTT against Garnl4	inactive: -1.22
UAGCCACUCAUCAUUCUAATT against LOC381806	inactive: 1.64
GCAAUAAUCGUUCUCAAAATT against Prkab1	inactive: 0.951
GGCAGGAAAUUCAUUUUAATT against Zfy2	inactive: 1.3
CCUGCUUGUCUCAAUAGUUTT against Krtap3-2	inactive: 0.308
GGUUCCUGACCACUGGUACTT against Gstt1	inactive: 0.289
GGCUUGUCAGUGCAUCUCATT against Kif9	inactive: -0.331
GGUGCAUAAAUAAAUUCCUTT against B230317F23Rik	inactive: 0.571
GGCACCAGUAUCAGCCUUUTT against Mrpl15	inactive: -1.23
GGCCAUCUCAUUUUCAGGGTT against Olfr749	inactive: 0.654

Further records follow.

Sequence	z-score
GCAGAGAAGGCAAUAAACUTT against Txnl2	inactive: 0.544
GGAGAAAGUGGACCUUUUGTT against Etfb	inactive: -0.666
GCUCUUAUACGCCUAGGUATT against Upk1a	inactive: -0.16
CCUCCAAGACUUAAAAGUATT against D3Jfr1	inactive: 0.345
GGAUUUGGGUUUUCUAUAATT against H2-Bf	inactive: 0.0232
CCUUUUAUGCUAGUACUGATT against Olfr1504	inactive: 0.556
GGACUUAUGAGCAAAUAAATT against BC021395	inactive: -0.657
GGACUUCAGCGAAUUUGACTT against Ube4a	inactive: -0.29
GGAAAAUUCCAUUCCAAAGTT against D8Ertd233e	inactive: -0.267
GGGACACCUGGAAUUAAGATT against 4921511F01Rik	inactive: 0.0208
CCUUUCACACGUCAUCAGUTT against Trpc2	inactive: -0.0596
GGCUCACCUGAUACACUUUTT against Ramp2	inactive: 0.578
GGAUAGUGUUUCACUGUUATT against Igfals	inactive: 0.903
GGACUUUUGUGCUGUAUUUTT against Tcfcp2l1	inactive: -1.25
GCUAAAUCAAGGAGACUAUTT against Art4	inactive: 1.47
AUUCGGGAAAAUUUUAGACTT against D11Bwg0517e	inactive: 1.68
GGGAAGUUCAGUUCAAUACTT against Hps4	inactive: -1.06
GCAACUGAAUUCCAGUUUUTT against Ugt1a2	inactive: -0.865
GCCCUCUGUGAGUAGUAAUTT against Shrm	inactive: -1.49
GGGAUUCUUACUCAGACGCTT against Bmf	inactive: -1.45
CGCUUGUCUAGGGUACAAATT against Daam1	inactive: 0.281
